Source: article PMC11445578
No constants are given. Whether binding was seen depends on the method and setting. Binding seen in cells or lysates may run through a third protein. Here binding means that the protein was enriched with, or labelled near, the bait; the list need not be complete.

Protein sequences, listed by entry. Tags and fused reporters are not part of them.
UniProt Q9Y5K6: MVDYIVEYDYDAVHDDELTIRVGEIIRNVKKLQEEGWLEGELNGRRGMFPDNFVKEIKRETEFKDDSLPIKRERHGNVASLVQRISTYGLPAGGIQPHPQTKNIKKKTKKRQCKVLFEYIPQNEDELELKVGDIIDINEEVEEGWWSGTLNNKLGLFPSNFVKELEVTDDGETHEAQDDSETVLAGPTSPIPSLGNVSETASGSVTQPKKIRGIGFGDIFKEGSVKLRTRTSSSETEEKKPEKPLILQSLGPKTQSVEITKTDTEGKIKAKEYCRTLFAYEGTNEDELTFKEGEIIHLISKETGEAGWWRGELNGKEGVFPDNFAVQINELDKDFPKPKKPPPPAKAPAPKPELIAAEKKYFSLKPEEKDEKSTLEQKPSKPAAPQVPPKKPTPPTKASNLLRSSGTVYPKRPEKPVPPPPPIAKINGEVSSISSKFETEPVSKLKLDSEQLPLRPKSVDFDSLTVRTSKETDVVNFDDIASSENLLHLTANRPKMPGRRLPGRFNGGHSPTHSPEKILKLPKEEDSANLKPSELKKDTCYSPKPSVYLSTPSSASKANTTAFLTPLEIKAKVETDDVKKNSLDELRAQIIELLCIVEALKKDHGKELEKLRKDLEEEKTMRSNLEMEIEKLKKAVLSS
UniProt Q9C035: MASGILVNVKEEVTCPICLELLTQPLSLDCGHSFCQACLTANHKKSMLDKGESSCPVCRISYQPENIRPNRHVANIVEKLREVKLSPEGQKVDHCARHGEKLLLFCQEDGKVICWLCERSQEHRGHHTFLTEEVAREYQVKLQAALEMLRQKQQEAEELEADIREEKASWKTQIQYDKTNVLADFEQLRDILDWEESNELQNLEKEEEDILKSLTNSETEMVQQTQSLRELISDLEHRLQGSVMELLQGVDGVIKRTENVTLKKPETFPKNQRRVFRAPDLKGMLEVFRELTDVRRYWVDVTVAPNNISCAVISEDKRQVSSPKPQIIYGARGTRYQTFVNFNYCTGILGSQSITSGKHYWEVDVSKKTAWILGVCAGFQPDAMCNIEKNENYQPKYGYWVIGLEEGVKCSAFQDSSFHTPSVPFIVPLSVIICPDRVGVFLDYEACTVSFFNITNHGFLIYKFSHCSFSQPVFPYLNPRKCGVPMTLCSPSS

Target: CD2-associated protein (CD2AP), endogenous (human (endogenous in U87MG and U251)) (UniProt Q9Y5K6)
Assay: affinity purification with mass spectrometry; CD2AP antibody and IgG control used to immunoprecipitate proteins from U87MG cells; SDS-PAGE, in-gel trypsin digestion, timsTOF Pro mass spectrometry

Question: “TRIM5, endogenous (from UniProt Q9C035 1-493)” was tested. Which binding did it give?
Answer: binds
